{"sequences": {"note": "Sequences of proteins named here, by UniProt entry; tags and fusion partners are left off.", "UniProt P09471, whole entry, looked up": "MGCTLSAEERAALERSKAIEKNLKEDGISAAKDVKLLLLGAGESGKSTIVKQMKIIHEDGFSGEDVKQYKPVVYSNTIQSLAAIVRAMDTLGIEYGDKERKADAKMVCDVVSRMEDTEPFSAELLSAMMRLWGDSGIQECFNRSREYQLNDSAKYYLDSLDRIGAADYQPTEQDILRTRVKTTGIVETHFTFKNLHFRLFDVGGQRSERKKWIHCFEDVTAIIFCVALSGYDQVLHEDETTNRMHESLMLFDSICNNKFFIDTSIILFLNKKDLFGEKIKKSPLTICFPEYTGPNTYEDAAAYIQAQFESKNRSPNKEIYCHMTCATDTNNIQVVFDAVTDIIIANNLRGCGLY"}, "source": "PubChem BioAssay AID1439", "about": "(NMMLSC, 2008)", "note": "Hit rate of the full screen: of about 220,000 compounds, about 770 (0.35%) were called active. The shares of active, inactive and inconclusive entries below differ from those in the screen. No stated cut-off is given here; in the data, active means binding response below about 49% or above about 150%; inconclusive means no clear call, values can overlap the other calls; inactive means in between."}
{"molecular_target": "Guanine nucleotide-binding protein G(o) subunit alpha (Homo sapiens) (UniProt P09471)", "test": "RGS7-Galphao binding modulators, primary screen, biochemical, multiplexed bead flow cytometry (AID 1439);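 further: fluorescent Galphao held in activated GDP-AlF4 state binding bead-coupled RGS7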", "conditions": "at 10 µM, actives lie on both sides"}
{"smiles": "CCc1c(-c2ccccc2)nc2sc3c(c2c1N)CCCC3", "binding response (% of control)": "inconclusive: 94%"}
{"smiles": "COC(=O)c1c(NC(C)=O)csc1C", "binding response (% of control)": "inconclusive: 95.8%"}
{"smiles": "Cc1ccc(C)c(NC(=S)NCC(c2ccccc2)N(C)C)c1", "note": "(stereo not given)", "binding response (% of control)": "inconclusive: 118%"}
{"smiles": "COc1cc(NC(=S)N2CCc3ccccc3C2)cc(OC)c1", "binding response (% of control)": "inactive: 100%"}
{"smiles": "CC(C(=O)NC1CCCCC1)N1CCN(C)CC1", "note": "(stereo not given)", "binding response (% of control)": "inconclusive: 88.6%"}
{"smiles": "Cc1sc(NC(=O)c2cccs2)c(C(=O)OC(C)C)c1C", "binding response (% of control)": "inactive: 105%"}
{"smiles": "O=c1cc(O)c2sc3nc4c(c(C(F)(F)F)c3c2[nH]1)CCCCC4", "binding response (% of control)": "inconclusive: 94.9%"}
{"smiles": "Cn1cc(C=C2C(=O)OC3(CCCCC3)OC2=O)c2ccccc21", "binding response (% of control)": "inconclusive: 138%"}
{"smiles": "COc1ccc(C(=O)OCC(=O)NC(=O)NC(C)C)cc1OC", "binding response (% of control)": "inconclusive: 116%"}
{"smiles": "C/C(O)=C(\\C#N)P(=O)(c1ccccc1)c1ccccc1", "binding response (% of control)": "inconclusive: 0.69%"}
{"smiles": "COC(=O)c1sccc1N/C=C(\\C#N)S(=O)(=O)C(C)(C)C", "binding response (% of control)": "inconclusive: 96.8%"}
{"smiles": "Cc1ccc(-n2c(=O)c3c4c(sc3n3c(=S)[nH]nc23)CCC4)cc1", "binding response (% of control)": "inconclusive: -392%"}
{"smiles": "Cc1nc2ccccc2c(=O)n1/N=C/C=C/c1ccccc1", "binding response (% of control)": "inconclusive: 105%"}
{"smiles": "CC(C)(C)C1=CC=C(C(C)(C)C)C(=O)C1=O", "binding response (% of control)": "inconclusive: 264%"}
{"smiles": "COc1ccc(OC)c(NC(=O)c2cccnc2Sc2ccccc2)c1", "binding response (% of control)": "inactive: 104%"}
{"smiles": "COC(=O)c1cnc(NNS(=O)(=O)c2ccc(C(F)(F)F)cc2)nc1C(F)(F)F", "binding response (% of control)": "inconclusive: 281%"}
{"smiles": "Cc1ccc(C(=O)COC(=O)c2ccc3c(c2)C(=O)N(c2cccc4ncccc24)C3=O)cc1", "binding response (% of control)": "inactive: 101%"}
{"smiles": "COC(=O)c1c(C)oc(C)c1S(=O)(=O)NC(c1ccccc1)c1ccccc1", "binding response (% of control)": "inconclusive: 102%"}
{"smiles": "C/C(=N\\Nc1cccc2cccnc12)c1ccc[nH]1", "binding response (% of control)": "inconclusive: 97.8%"}
{"smiles": "CS(=O)(=O)N(CC(=O)NCc1ccccn1)Cc1ccc(Cl)cc1", "binding response (% of control)": "inactive: 102%"}
{"smiles": "Cc1nn(Cc2ccccc2)c(C)c1/C=N/NC(=O)c1ccccc1O", "binding response (% of control)": "inconclusive: 123%"}
{"smiles": "N#Cc1c(Nc2cccc(F)c2)sc2c(O)cc(=O)[nH]c12", "binding response (% of control)": "inconclusive: 102%"}
{"smiles": "CC(=Nc1ccccc1)Nc1ccccc1", "binding response (% of control)": "inactive: 125%"}
{"smiles": "CNC(=O)CN(C)S(=O)(=O)c1ccc(OC)c(Cl)c1", "binding response (% of control)": "active: 18.5%"}
{"smiles": "CSc1ncc(S(=O)(=O)c2ccccc2)c(=O)[nH]1", "binding response (% of control)": "inconclusive: 108%"}
{"smiles": "O=C(O)CC1(CC(=O)Nc2ccc(F)cc2F)CCCCC1", "binding response (% of control)": "inconclusive: 174%"}
{"smiles": "CCOC(=O)c1ccc(NC(=S)N(CCN2CCCCCC2)Cc2cccs2)cc1", "binding response (% of control)": "inconclusive: 106%"}
{"smiles": "CSc1ccccc1NC(=O)c1ccc([N+](=O)[O-])cc1", "binding response (% of control)": "inconclusive: 85.8%"}
{"smiles": "COC(=O)c1cccc(NC(=O)c2nn(C)c(=O)c3ccccc23)c1", "binding response (% of control)": "inactive: 102%"}
{"smiles": "COc1cc2c(C)nc3c(c(C)nn3-c3ccccc3)c2cc1OC", "binding response (% of control)": "inactive: 84.9%"}
{"smiles": "CCc1cc(=O)oc2cc(C)cc(OCC(=O)C(C)(C)C)c12", "binding response (% of control)": "inconclusive: 115%"}
{"smiles": "CCOC(=O)c1oc2cc(O)c(CC)cc2c(=O)c1-c1cscn1", "binding response (% of control)": "inconclusive: 100%"}
{"smiles": "Cc1ccc(C)n1-c1ccc(C(=O)N/N=C/c2ccncc2)cc1", "binding response (% of control)": "inconclusive: 77.7%"}
{"smiles": "CC1CCCC(NC(=O)COC(=O)c2ccccc2[N+](=O)[O-])C1C", "note": "(stereo not given)", "binding response (% of control)": "inconclusive: 81.5%"}
{"smiles": "Cc1onc(C(=O)NN)c1-c1csc(COc2ccccc2)n1", "binding response (% of control)": "inconclusive: 122%"}
{"smiles": "O=C(COc1cccnc1[N+](=O)[O-])Nc1ccc2c(c1)CCC2", "binding response (% of control)": "inconclusive: 110%"}
{"smiles": "Cc1nc(SCC(=O)NC(=O)NCc2ccco2)nc(C)c1C", "binding response (% of control)": "inconclusive: 75.2%"}
{"smiles": "Cc1ccc(N/C=C(\\C2OC(=O)c3ccccc32)[N+](=O)[O-])c(C)c1", "note": "(stereo not given)", "binding response (% of control)": "inconclusive: 92%"}
{"smiles": "N#C/C(=C(/O)COC(=O)COc1cccc(Br)c1)c1nc2ccccc2[nH]1", "binding response (% of control)": "inconclusive: 50.6%"}
{"smiles": "O=C(N/N=C/C(Br)=C/c1ccccc1)c1cnccn1", "binding response (% of control)": "inconclusive: 101%"}
{"smiles": "O=C(Cc1cccc(C(F)(F)F)c1)NCC(c1ccco1)N1CCCCC1", "note": "(stereo not given)", "binding response (% of control)": "inconclusive: 92.2%"}
{"smiles": "c1ccc2nc(SCc3cn4ccccc4n3)cnc2c1", "binding response (% of control)": "inconclusive: 94.1%"}
{"smiles": "COc1ccc(NC(=O)COc2nsnc2N2CCOCC2)cc1", "binding response (% of control)": "inconclusive: 116%"}
{"smiles": "COc1ccc(NC(=O)NC2CCCCC2C)cc1", "note": "(stereo not given)", "binding response (% of control)": "inconclusive: 110%"}
{"smiles": "O=C(NCC(=O)N(Cc1ccco1)C(C(=O)NC1CCCCC1)c1ccncc1)c1cccs1", "note": "(stereo not given)", "binding response (% of control)": "inconclusive: 115%"}
{"smiles": "CCOC(=O)C1(Cc2cccc(F)c2)CCN(C(=O)Cn2cnnn2)CC1", "binding response (% of control)": "inconclusive: 87.8%"}
{"smiles": "O=C(NCCC1CC1(Cl)Cl)Nc1ccccc1", "note": "(stereo not given)", "binding response (% of control)": "inconclusive: 96.2%"}
{"smiles": "C#CCOCCOCCOCCNc1nc(N2CCN(C(=O)[C@H](CCCCN)n3cc([C@@H](N)C(C)CC)nn3)CC2)nc(N2CCN(C(=O)[C@H](Cc3cc4ccccc4[nH]3)n3cc([C@@H](N)CC(C)C)nn3)CC2)n1", "note": "(stereo not given in full)", "binding response (% of control)": "inactive: 101%"}
{"smiles": "NNc1nnc2c3cc(F)ccc3n(Cc3ccccc3)c2n1", "binding response (% of control)": "inconclusive: 81%"}
{"smiles": "CC1(C(=O)OCC(=O)Nc2ccc3ccccc3c2)CC1(Cl)Cl", "note": "(stereo not given)", "binding response (% of control)": "inconclusive: 91.4%"}
{"smiles": "COc1cccc(Cc2n[nH]c(=S)n2Cc2ccco2)c1", "binding response (% of control)": "inconclusive: 102%"}
{"smiles": "Nc1ncncc1-c1ccc(Cl)cc1", "binding response (% of control)": "inconclusive: 102%"}
{"smiles": "COc1ccc2oc(=O)c(C(=O)NCc3ccco3)cc2c1", "binding response (% of control)": "inconclusive: 89.8%"}
{"smiles": "Cc1cccc(NC(=O)Cn2c(O)c(N=NC(N)=S)c3ccccc32)c1", "binding response (% of control)": "inconclusive: 113%"}
{"smiles": "CC(=O)Nc1ccc2c(c1)c1ccccc1n2C(C)=O", "binding response (% of control)": "inactive: 101%"}
{"smiles": "CCNC(=O)c1ccccc1-c1nc(-c2ccccc2)no1", "binding response (% of control)": "inconclusive: 83.4%"}
{"smiles": "COc1ccc(-c2nn(C)c(=O)c3ccccc23)cc1CNC(=O)C1CCCCC1", "binding response (% of control)": "inconclusive: 143%"}
{"smiles": "O=C1C=C(NNC(=O)c2ccccc2Br)CCC1", "binding response (% of control)": "inactive: 93%"}
{"smiles": "Cc1cc(Oc2ccc(=O)n(C)n2)nc(SCCOc2ccccc2)n1", "binding response (% of control)": "inconclusive: 109%"}
{"smiles": "CS(=O)(=O)c1ncc(CO)n1Cc1ccccc1", "binding response (% of control)": "inconclusive: 102%"}
